Source: article PMC5511296
No constants are given. Whether binding was seen depends on the method and setting. In cells and extracts the contact can be indirect. Some results given as binding are weak or reduced against the parent protein; the word gives no strength.

Amino acid sequences for entries named in this document (tags omitted).
UniProt Q9NP77: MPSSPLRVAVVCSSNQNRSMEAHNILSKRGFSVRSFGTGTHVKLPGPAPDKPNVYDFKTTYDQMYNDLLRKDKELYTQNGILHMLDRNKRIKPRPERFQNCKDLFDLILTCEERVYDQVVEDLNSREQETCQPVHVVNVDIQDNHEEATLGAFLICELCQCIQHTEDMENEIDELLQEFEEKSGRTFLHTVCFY
UniProt P42227: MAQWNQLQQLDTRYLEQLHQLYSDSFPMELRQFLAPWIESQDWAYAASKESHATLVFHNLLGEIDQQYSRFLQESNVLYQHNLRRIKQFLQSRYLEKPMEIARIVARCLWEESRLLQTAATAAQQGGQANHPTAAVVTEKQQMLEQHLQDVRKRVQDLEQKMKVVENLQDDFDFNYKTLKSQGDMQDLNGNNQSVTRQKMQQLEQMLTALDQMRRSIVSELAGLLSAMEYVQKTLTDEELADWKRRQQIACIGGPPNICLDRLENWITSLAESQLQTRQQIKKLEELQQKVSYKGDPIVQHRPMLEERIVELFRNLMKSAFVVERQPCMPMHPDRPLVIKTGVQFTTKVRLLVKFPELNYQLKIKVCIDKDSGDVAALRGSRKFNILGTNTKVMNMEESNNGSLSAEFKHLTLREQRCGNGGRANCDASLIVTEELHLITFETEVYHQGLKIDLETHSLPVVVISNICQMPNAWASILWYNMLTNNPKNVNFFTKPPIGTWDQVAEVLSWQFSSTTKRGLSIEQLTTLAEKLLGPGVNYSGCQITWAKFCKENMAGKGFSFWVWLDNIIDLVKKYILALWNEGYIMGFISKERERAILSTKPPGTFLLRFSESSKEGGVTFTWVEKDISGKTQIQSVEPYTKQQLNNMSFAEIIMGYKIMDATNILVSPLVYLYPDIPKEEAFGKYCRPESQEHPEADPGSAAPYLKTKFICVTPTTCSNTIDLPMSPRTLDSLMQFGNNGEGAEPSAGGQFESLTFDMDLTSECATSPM

Molecular target: Ssu72 (UniProt Q9NP77)
Experiment: co-IP; lysates of transfected NIH-3T3 cells immunoprecipitated with anti-FLAG antibody; immunoblotted with anti-p-STAT3 Tyr705, anti-p-STAT3 and anti-Ssu72 antibodies

binding: binds
Substance: Signal transducer and activator of transcription 3 (from UniProt P42227 1-770)
